Among the data in publication PMC10368568 are binding values, retold here.

Chains of the proteins cited; added tags and fusions are not shown.
UniProt P15337: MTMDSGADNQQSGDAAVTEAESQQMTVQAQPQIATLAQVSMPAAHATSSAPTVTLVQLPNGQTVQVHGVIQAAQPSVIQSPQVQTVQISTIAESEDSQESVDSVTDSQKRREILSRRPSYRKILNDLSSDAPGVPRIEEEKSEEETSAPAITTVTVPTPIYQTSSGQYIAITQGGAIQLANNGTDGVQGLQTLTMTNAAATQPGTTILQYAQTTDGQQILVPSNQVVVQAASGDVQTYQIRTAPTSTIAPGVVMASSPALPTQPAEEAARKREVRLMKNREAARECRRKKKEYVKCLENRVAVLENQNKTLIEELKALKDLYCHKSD

No constants are given. Whether binding was seen depends on the method and setting. Binding seen in cells or lysates may run through a third protein. Some entries that bind do so weakly or less than the wild type.

Test [1] concerns the target T1, LaminB1 (rat (endogenous in hippocampal neurons)) (UniProt P70615).
T1 sequence: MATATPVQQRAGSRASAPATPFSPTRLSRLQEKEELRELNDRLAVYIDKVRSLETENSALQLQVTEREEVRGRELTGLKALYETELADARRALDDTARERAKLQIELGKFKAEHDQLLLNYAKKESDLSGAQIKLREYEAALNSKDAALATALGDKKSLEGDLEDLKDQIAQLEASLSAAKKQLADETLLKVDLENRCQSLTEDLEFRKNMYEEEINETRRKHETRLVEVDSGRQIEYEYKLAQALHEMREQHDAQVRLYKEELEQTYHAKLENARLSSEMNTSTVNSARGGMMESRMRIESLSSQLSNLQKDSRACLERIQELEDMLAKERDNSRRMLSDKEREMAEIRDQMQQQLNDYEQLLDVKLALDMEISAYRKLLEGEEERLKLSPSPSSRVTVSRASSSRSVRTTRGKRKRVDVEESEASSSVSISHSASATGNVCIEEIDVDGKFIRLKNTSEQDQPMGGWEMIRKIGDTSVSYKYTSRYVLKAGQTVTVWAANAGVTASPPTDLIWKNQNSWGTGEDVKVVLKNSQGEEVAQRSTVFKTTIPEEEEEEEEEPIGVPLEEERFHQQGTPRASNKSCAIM
As to the kind of experiment: proximity ligation; Duolink PLA on 40 um sections of acute rat hippocampal slices, CA1 pyramidal neurons, endogenous proteins; untreated or after bath NMDA (100 uM, 5 min) or theta burst stimulation (fixed 3 min after TBS).

Test [2] deals with cAMP-responsive element-binding protein (CREB) (rat (endogenous in hippocampal neurons)) (UniProt P15337). The test is described as above.
Test [3] addresses T1, LaminB1 (rat (endogenous in hippocampal neurons)). As to the kind of experiment: proximity ligation; Duolink PLA on fixed cultured rat hippocampal neurons (DIV15-16), endogenous proteins, rabbit and mouse primary antibodies; untreated or treated with ionomycin (1 uM, 1 min), NMDA (50 uM, 5 min) or 4AP/bicuculline (2.5 mM/50 uM, 5 min).
Test [4] addresses cAMP-responsive element-binding protein (CREB) (rat (endogenous in hippocampal neurons)) (UniProt P15337). The description is as above.

B1: Jacob (protein, UniProt Q9EPI6 1-532)
chain: MGAAASRRRALRSEAMSSVAAKVRAARAFGEYLSQSHPENRNGADHLLADAYSGHEGSPEMQPAPHNKRRLSLVSNGRYEGSISDEAVSGKTATEGPQPRVYTISREPALLPGSEAEAIELAVVKGRRQRERHPHHHSQPLRASPGSSREDISRPCQSWAGSRQGSKECPGCAKLVPGPSPRAFGLEQPPLPEASGRHKKLERMYSVDGVSDDVPIRTWFPKENPFSFQTATTTMQAISVFRGYAERKRRKRENDSASVIQRNFRKHLRMVGSRRVKAQTFAERRERSFSRSWSDPTPMKADTSHDSRDSSDLQSSHCTLDEACEDLDWDTEKGLEATACDTEGFLPPKVMLISSKVPKAEYIPTIIRRDDPSIIPILYDHEHATFEDILEEIEKKLNIYHKGAKIWKMLIFCQGGPGHLYLLKNKVATFAKVEKEEDMIHFWKRLSRLMSKVNPEPNVIHIMGCYILGNPNGEKLFQNLRTLMTPYKVTFESPLELSAQGKQMIETYFDFRLYRLWKSRQHSKLLDFDDVL
B1: the binding result in test [1], in test [2] and in test [3] was “binds” in each case.

B2: pS180-Jacob (protein, UniProt Q9EPI6 1-532)
chain: MGAAASRRRALRSEAMSSVAAKVRAARAFGEYLSQSHPENRNGADHLLADAYSGHEGSPEMQPAPHNKRRLSLVSNGRYEGSISDEAVSGKTATEGPQPRVYTISREPALLPGSEAEAIELAVVKGRRQRERHPHHHSQPLRASPGSSREDISRPCQSWAGSRQGSKECPGCAKLVPGPSPRAFGLEQPPLPEASGRHKKLERMYSVDGVSDDVPIRTWFPKENPFSFQTATTTMQAISVFRGYAERKRRKRENDSASVIQRNFRKHLRMVGSRRVKAQTFAERRERSFSRSWSDPTPMKADTSHDSRDSSDLQSSHCTLDEACEDLDWDTEKGLEATACDTEGFLPPKVMLISSKVPKAEYIPTIIRRDDPSIIPILYDHEHATFEDILEEIEKKLNIYHKGAKIWKMLIFCQGGPGHLYLLKNKVATFAKVEKEEDMIHFWKRLSRLMSKVNPEPNVIHIMGCYILGNPNGEKLFQNLRTLMTPYKVTFESPLELSAQGKQMIETYFDFRLYRLWKSRQHSKLLDFDDVL
modifications: phosphoserine at 180
In the case of B2, the binding result in test [2] and in test [4] was “binds” each time.
